Reference: PubChem BioAssay AID445 (National Center for Advancing Translational Sciences (NCATS), 2006)
“And” between values parts separate entries of the source, which are not always exact repeats. Equal values may be shown once. The list shows a part of the results. Shown are side measurements of this screen, not its main read-out; they come without a call. The list favours compounds with an active or inconclusive main result. The note in brackets gives the kind of curve behind each potency; many fits are weak.

Assay: IkB Signaling
Settings: ABC-DLBCL IkBa-CBG/CBR dual luciferase ratio (green luciferase fused to IkBa over red control in OCI-Ly3 lymphoma cells), 4 h
Procedure, shortened: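 In this assay, an IκBα–CBG68 fusion accumulates when IKK-driven degradation is blocked; native CBR normalizes for cell number. OCI-Ly3 cells were treated 4 h with compound and doxycycline, then green and red light read after Chroma-Glo addition.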

[1] = measured here: control luc red channel unless noted
[2] = measured here: IkB-luc green channel
[3] = measured here: control luc red channel

**Q.** Which AC50 [1] does the source give for `Cc1ccc(-c2nnc(Nc3cccc(Cl)c3)c3ccccc23)cc1S(=O)(=O)NCC1CCCO1` (centres undefined) here?
**A.** 7.94 µM [falling, partial curve]

**Q.** With `Cn1nc(-c2ccc(OCC(=O)Nc3cccnc3)cc2)c2ccccc2c1=O` as the molecule, how does the AC50 [1] read?
**A.** 20 µM [falling, partial curve]

**Q.** For `Nc1nc(-c2ccccc2)cc(-c2ccccc2O)n1`, which AC50 [1] is on record?
**A.** 10 µM [falling, partial curve]

**Q.** Which AC50 [1] does the source give for `COc1cccc(OCCCCn2c(-c3ccc(Cl)cc3)nc3ccccc3c2=O)c1` here?
**A.** 20 µM [falling, partial curve]

**Q.** For `Cc1ccc(-c2onc(C)c2C)cc1S(=O)(=O)NCc1ccco1`, which AC50 [1] is on record?
**A.** 39.8 µM [falling, partial curve]

**Q.** For `O=C(c1cccc([N+](=O)[O-])c1)N1c2ncnn2C2(CCCCC2)[C@@H]2CCCC[C@@H]21`, which AC50 [1] is on record?
**A.** 10 µM [falling, partial curve]

**Q.** Which AC50 [1] does the source give for `Cc1ccc(S(=O)(=O)c2cnc(SCC(=O)Nc3ccc4c(c3)OCCO4)[nH]c2=O)cc1` here?
**A.** 31.6 µM [falling, partial curve]

**Q.** For `Cc1cc(C(=O)OCc2nnc(-c3ccccc3)o2)c(C)n1-c1ccccc1`, which AC50 [1] is on record?
**A.** 15.8 µM [falling, partial curve]

**Q.** Which AC50 [1] does the source give for `CCC(OC(=O)c1cc2sccc2n1C)C(=O)NCc1ccco1` (centres undefined) here?
**A.** 25.1 µM [falling, partial curve]

**Q.** For `CC(C)(C)c1ccc(O)c(O)c1`, which AC50 [1] is on record?
**A.** 39.8 µM [rising, partial curve] [measured here: IkB-luc green channel]

**Q.** With `O=C(CSc1nnc(C2COc3ccccc3O2)o1)N1CCCc2ccccc21` (centres undefined) as the molecule, how does the AC50 [1] read?
**A.** 15.8 µM [falling, partial curve]

**Q.** Which AC50 [1] does the source give for `COc1ccccc1Nc1nn2c(=O)c3ccc(C(=O)NCc4cccs4)cc3nc2s1` here?
**A.** 6.31 µM [falling, full curve]

**Q.** Which AC50 [1] does the source give for `Cc1ccc2c(=O)c(C(=O)c3ccc(F)cc3)cn(CC(=O)NCc3ccccc3)c2n1` here?
**A.** 39.8 µM [falling, single point]

**Q.** With `COC(=O)c1ccc(C(=O)OC)c(NC(=O)COC(=O)C23CC4CC(CC(O)(C4)C2)C3)c1` as the molecule, how does the AC50 [1] read?
**A.** 25.1 µM [falling, partial curve]

**Q.** For `COc1ccc(OC)c(S(=O)(=O)NCCc2sc(-c3ccc(C)cc3)nc2C)c1`, which AC50 [1] is on record?
**A.** 0.1 µM [falling, full curve]

**Q.** With `Cc1ccc(C)c(NC(=O)c2ccccc2O)c1` as the molecule, how does the AC50 [1] read?
**A.** 39.8 µM [falling, single point]

**Q.** For `COc1ccc(C(=O)Nc2ccc(-c3nc4ncccc4o3)cc2)cc1`, which AC50 [1] is on record?
**A.** 39.8 µM [falling, single point]

**Q.** With `Cc1cc(Nc2ccc(C)c(C)c2)n2cnnc2n1` as the molecule, how does the AC50 [1] read?
**A.** 39.8 µM [falling, partial curve]

**Q.** With `CCCN(CCC)C(=O)CSc1nnc2cc(C)c3cc(C)cc(C)c3n12` as the molecule, how does the AC50 [1] read?
**A.** 1 µM [falling, partial curve]

**Q.** Which AC50 [1] does the source give for `Cc1cccc(CN2C(=O)c3ccccc3Sc3ccc(C(=O)N4CCCC4)cc32)c1` here?
**A.** 25.1 µM [falling, single point]

**Q.** For `COC(=O)c1c(-c2cccs2)csc1NC(=O)c1ccc(Cl)cc1`, which AC50 [1] is on record?
**A.** 25.1 µM [falling, partial curve]

**Q.** For `COCCN1C(=O)c2[nH]nc(-c3ccccc3O)c2C1c1ccc(OCc2ccccc2)c(OC)c1` (centres undefined), which AC50 [1] is on record?
**A.** 25.1 µM [falling, single point]

**Q.** With `CCc1ccc(N(CC)C(=O)c2ccc3c(=O)n4c(nc3c2)CCCCC4)cc1` as the molecule, how does the AC50 [1] read?
**A.** 12.6 µM [falling, partial curve]

**Q.** Which AC50 [1] does the source give for `CCN(CC)c1ccc(-c2nn3c(-c4ccccc4OC)nnc3s2)cc1` here?
**A.** 12.6 µM [falling, partial curve, poor fit]

**Q.** With `CCC(=O)Nc1cc(NC(=O)CSc2ncc(-c3ccc(F)cc3)n2Cc2ccco2)ccc1C` as the molecule, how does the AC50 [1] read?
**A.** 0.398 µM [falling, full curve]

**Q.** With `Cc1ccc(NC(=O)c2ncn(-c3ccccc3)n2)cc1Cl` as the molecule, how does the AC50 [1] read?
**A.** 3.98 µM [falling, full curve]

**Q.** For `Cc1nc(-n2nc(C)c(Cc3ccccc3Cl)c2C)sc1C(=O)N1CCCCC1C` (centres undefined), which AC50 [1] is on record?
**A.** 20 µM [falling, partial curve]

**Q.** With `Cc1ccc(NC(=O)CS(=O)(=O)c2nc(-c3ccc(C)cc3)cn2-c2ccc(C)cc2)cc1` as the molecule, how does the AC50 [1] read?
**A.** 0.0398 µM [falling, full curve, poor fit]

**Q.** For `N#CCSc1nc2[nH]ncc2c(=O)n1-c1ccccc1Br`, which AC50 [1] is on record?
**A.** 20 µM [rising, partial curve]

**Q.** Which AC50 [1] does the source give for `O=S(=O)(c1ccc2ccccc2c1)n1nc(-c2ccco2)nc1NCc1ccc(F)cc1` here?
**A.** 15.8 µM [falling, partial curve]

**Q.** Which AC50 [1] does the source give for `Cc1cc(NC(=O)CCCn2c(C)c3cnn(-c4ccccc4)c(=O)c3c2C)ccc1Br` here?
**A.** 15.8 µM [falling, partial curve]

**Q.** For `Cc1cc(C)cc(C(=O)N(Cc2nc(-c3ccc(Cl)cc3)no2)C(C)C)c1`, which AC50 [1] is on record?
**A.** 7.94 µM [falling, full curve]

**Q.** For `CCOc1ccccc1NC(=O)CN1C(=O)CC(c2ccco2)Sc2ccccc21` (centres undefined), which AC50 [1] is on record?
**A.** 31.6 µM [falling, partial curve]

**Q.** Which AC50 [1] does the source give for `COc1ccc(N2CCN(C(=O)c3cn(C4CCCC4)c(=O)c4c3c3ccccc3n4C)CC2)cc1` here?
**A.** 12.6 µM [falling, partial curve]

**Q.** For `COC(=O)c1ccc(OCC(O)Cn2cnc3cc(C)c(C)cc32)cc1` (centres undefined), which AC50 [1] is on record?
**A.** 20 µM [falling, partial curve, poor fit]

**Q.** For `CCN(C(=O)CSc1ncc(S(=O)(=O)c2ccc(C)c(Cl)c2)c(=O)[nH]1)c1cccc(C)c1`, which AC50 [1] is on record?
**A.** 25.1 µM [falling, partial curve]

**Q.** For `COc1ccc(NC(=O)CC2SC(=Nc3ccccc3)NC2=O)c(OC)c1` (centres undefined), which AC50 [1] is on record?
**A.** 7.94 µM [falling, partial curve]

**Q.** With `COc1ccc(NC(=O)Nc2cccc3cccnc23)cc1` as the molecule, how does the AC50 [1] read?
**A.** 12.6 µM [falling, partial curve]

**Q.** With `COc1ccc(OC)c(NC(=O)c2cc3c(s2)-c2ccccc2SC3)c1` as the molecule, how does the AC50 [1] read?
**A.** 6.31 µM [falling, partial curve]

**Q.** For `Cc1ccc(-n2ncc(C(=O)NC3CCCC3)c2C2CCN(C(=O)OC(C)(C)C)CC2)c(C)c1`, which AC50 [1] is on record?
**A.** 12.6 µM [falling, partial curve]

**Q.** Which AC50 [1] does the source give for `Cc1ccc(C)c(NS(=O)(=O)c2ccc3c4c(cccc24)C(=O)N3)c1` here?
**A.** 6.31 µM [falling, full curve]

**Q.** For `COc1ccc(OC)c(Nc2nc3ccccc3n3c(C)nnc23)c1`, which AC50 [1] is on record?
**A.** 0.398 µM [falling, full curve, poor fit]

**Q.** Which AC50 [1] does the source give for `Nc1nc(NC(=O)c2ccco2)nn1-c1ccccc1` here?
**A.** 6.31 µM [falling, partial curve]

**Q.** With `O=C(Nc1cc(-c2nc3cc(Cl)ccc3o2)ccc1Cl)c1cccs1` as the molecule, how does the AC50 [1] read?
**A.** 7.94 µM [falling, partial curve]

**Q.** Which AC50 [1] does the source give for `COc1ccc(COC(=O)c2[nH]c3c(c2C)C(=O)CC(c2ccc(OC)c(OC)c2)C3)cc1` (centres undefined) here?
**A.** 3.98 µM [falling, full curve]

**Q.** With `C#CC(C)(CC)NC(=O)Cn1nnc(-c2ccc(OCc3ccccc3F)cc2)n1` (centres undefined) as the molecule, how does the AC50 [1] read?
**A.** 3.16 µM [falling, full curve, poor fit]

**Q.** For `CCN(CC)C(=O)CSc1nc(-c2ccccc2)cc(-c2ccc(OC)cc2)c1C#N`, which AC50 [1] is on record?
**A.** 3.98 µM [rising, single point]

**Q.** With `COc1ccc(C2Nc3ccccc3-n3c(-c4ccccc4)c4c(=O)n(C)c(=O)n(C)c4c32)cc1` (centres undefined) as the molecule, how does the AC50 [1] read?
**A.** 10 µM [falling, partial curve]

**Q.** With `COc1ccccc1-c1noc(-c2ccc(NCc3ccccc3)c([N+](=O)[O-])c2)n1` as the molecule, how does the AC50 [1] read?
**A.** 0.501 µM [rising, full curve]

**Q.** For `COc1ccc(N2Cc3cccc(C(=O)Nc4ccc(C)cc4)c3C2=O)cc1`, which AC50 [1] is on record?
**A.** 39.8 µM [rising, single point]

**Q.** With `Cc1ccc(O)c(N=CC2=C(O)c3ccccc3C2=O)c1` as the molecule, how does the AC50 [2] read?
**A.** 3.16 µM [rising, partial curve]

**Q.** What about the AC50 [3] of the same molecule?
**A.** 25.1 µM [falling, single point]

**Q.** For `CCC(=O)N1CCc2cc(S(=O)(=O)N3CCN(c4ccccc4F)CC3)ccc21`, which AC50 [1] is on record?
**A.** 25.1 µM [falling, single point]

**Q.** With `COc1cc(OC)c(NC(=O)Cn2nc(C)n3cccc3c2=O)cc1Cl` as the molecule, how does the AC50 [1] read?
**A.** 6.31 µM [falling, partial curve]

**Q.** With `COc1ccccc1OCC(=O)Nc1ccc(S(=O)(=O)N2CCCCCC2)cc1` as the molecule, how does the AC50 [1] read?
**A.** 12.6 µM [falling, partial curve]

**Q.** For `COc1ccc(OC)c(NC(=O)CN2CCC(C(=O)c3ccc(C)cc3)CC2)c1`, which AC50 [1] is on record?
**A.** 20 µM [falling, partial curve]

**Q.** For `CCN(CC)S(=O)(=O)c1ccc2c(c1)c(=O)c(C(=O)NCCc1ccc(OC)c(OC)c1)cn2C`, which AC50 [1] is on record?
**A.** 0.158 µM [rising, partial curve]

**Q.** With `O=C(Nc1cnc2ccccn2c1=O)c1ccc(F)cc1` as the molecule, how does the AC50 [1] read?
**A.** 15.8 µM [falling, partial curve]

**Q.** For `CCOC(=O)c1nnn(-c2nonc2N)c1COc1cc(C)c(Cl)c(C)c1`, which AC50 [1] is on record?
**A.** 15.8 µM [falling, partial curve]

**Q.** For `CCCCc1nc2ccccc2c(=O)n1NC(=O)c1c(O)c2c(n(CC(C)C)c1=O)CCCC2`, which AC50 [1] is on record?
**A.** 6.31 µM [falling, partial curve]

**Q.** With `Cc1coc2cc3oc(=O)c(CCC(=O)N4CCCCC4)c(C)c3cc12` as the molecule, how does the AC50 [1] read?
**A.** 39.8 µM [falling, single point]

**Q.** With `C[C@@]12C(=O)OC(=O)[C@@]1(C)[C@H]1CC[C@@H]2O1` as the molecule, how does the AC50 [2] read?
**A.** 31.6 µM [rising, partial curve] and 3.98 µM [rising, partial curve]

**Q.** And the AC50 [3]?
**A.** 20 µM [rising, partial curve] and 1.58 µM [rising, partial curve]

**Q.** For `c1coc(CNc2nc3nonc3nc2NCc2ccco2)c1`, which AC50 [1] is on record?
**A.** 25.1 µM [falling, partial curve]
